The values below come from paper doi:10.1101/594382.

Sequences of proteins named here, by UniProt entry; tags and fusion partners are left off.
UniProt P94400, whole entry: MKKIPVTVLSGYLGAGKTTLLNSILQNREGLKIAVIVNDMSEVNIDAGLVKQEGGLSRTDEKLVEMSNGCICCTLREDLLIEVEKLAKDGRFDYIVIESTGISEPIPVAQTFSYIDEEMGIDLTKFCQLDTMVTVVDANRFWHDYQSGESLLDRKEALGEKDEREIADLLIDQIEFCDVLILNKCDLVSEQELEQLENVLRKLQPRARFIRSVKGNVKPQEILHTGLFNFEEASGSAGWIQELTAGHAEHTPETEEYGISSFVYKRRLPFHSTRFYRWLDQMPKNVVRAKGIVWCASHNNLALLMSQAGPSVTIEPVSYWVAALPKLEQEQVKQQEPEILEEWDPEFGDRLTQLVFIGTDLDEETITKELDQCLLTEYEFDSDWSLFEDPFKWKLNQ

What all share (test): two-hybrid
Experiment [1] concerns the target T1, Bacillus subtilis FolE2, zinc-independent GTP cyclohydrolase (B. subtilis) (UniProt P94398).
T1 sequence: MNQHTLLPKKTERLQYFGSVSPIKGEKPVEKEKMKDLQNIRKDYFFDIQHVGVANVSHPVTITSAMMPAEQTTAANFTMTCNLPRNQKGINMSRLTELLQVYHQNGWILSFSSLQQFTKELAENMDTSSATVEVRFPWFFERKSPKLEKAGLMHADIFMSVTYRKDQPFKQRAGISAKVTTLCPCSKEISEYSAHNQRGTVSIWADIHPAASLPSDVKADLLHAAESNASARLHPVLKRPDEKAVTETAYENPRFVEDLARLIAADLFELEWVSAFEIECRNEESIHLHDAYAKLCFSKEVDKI

For experiment [2], the target named is T2, Bacillus subtilis FolE, zinc dependent GTP cyclohydrolase (B. subtilis) (UniProt P19465).
T2 sequence: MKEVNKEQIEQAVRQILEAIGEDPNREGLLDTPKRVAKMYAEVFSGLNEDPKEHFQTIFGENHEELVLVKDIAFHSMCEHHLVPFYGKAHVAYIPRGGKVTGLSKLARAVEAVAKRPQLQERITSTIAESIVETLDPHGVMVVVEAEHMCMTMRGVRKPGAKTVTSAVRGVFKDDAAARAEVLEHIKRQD

Experiment [3] concerns the target T2, Bacillus subtilis FolE, zinc dependent GTP cyclohydrolase (B. subtilis). The source holds these as a separate data set.
The target in experiment [4] is T1, Bacillus subtilis FolE2, zinc-independent GTP cyclohydrolase (B. subtilis). This is another data set of the same source.

Read-outs that look alike come from different tables or passages of the source. These are yes or no findings as the source states them, for the method shown. Some binding calls cover weakened binding; strength is not graded here.

Take “Bacillus subtilis ZagA (ZTP activated GTPase A), zinc metallochaperone (from UniProt P94400 1-397)”: the binding result in experiment [1] is recorded as “no binding”; in experiment [2], “binds”; in experiment [3] it was “binds”; in experiment [4], “no binding”.
